Data taken from the supplement of paper PMC12823440, “Inhibitors supercharge kinase turnover through native proteolytic circuits” (Nature, 2025).
Where a name gives a salt, the structure may show the parent alone. The list shows a part of the results. The calls rarely recur for the same compound in another form.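 Kinases were expressed as nanoluciferase fusions in K562 cells and luminescence was read every 4 h between 2 and 18 h as percent of control, DMSO set to 100% and a positive control to 0%. A time point counts as decreased when the signal drops significantly (2 sigma). The hit call is the authors' own, does not follow from the count of time points alone, and its rule is not shown.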

Protein sequences, listed by entry. Tags and fused reporters are not part of them. Lines headed by an entry give the natural chain unless they say otherwise; changes in a name come on top.
UniProt Q06187: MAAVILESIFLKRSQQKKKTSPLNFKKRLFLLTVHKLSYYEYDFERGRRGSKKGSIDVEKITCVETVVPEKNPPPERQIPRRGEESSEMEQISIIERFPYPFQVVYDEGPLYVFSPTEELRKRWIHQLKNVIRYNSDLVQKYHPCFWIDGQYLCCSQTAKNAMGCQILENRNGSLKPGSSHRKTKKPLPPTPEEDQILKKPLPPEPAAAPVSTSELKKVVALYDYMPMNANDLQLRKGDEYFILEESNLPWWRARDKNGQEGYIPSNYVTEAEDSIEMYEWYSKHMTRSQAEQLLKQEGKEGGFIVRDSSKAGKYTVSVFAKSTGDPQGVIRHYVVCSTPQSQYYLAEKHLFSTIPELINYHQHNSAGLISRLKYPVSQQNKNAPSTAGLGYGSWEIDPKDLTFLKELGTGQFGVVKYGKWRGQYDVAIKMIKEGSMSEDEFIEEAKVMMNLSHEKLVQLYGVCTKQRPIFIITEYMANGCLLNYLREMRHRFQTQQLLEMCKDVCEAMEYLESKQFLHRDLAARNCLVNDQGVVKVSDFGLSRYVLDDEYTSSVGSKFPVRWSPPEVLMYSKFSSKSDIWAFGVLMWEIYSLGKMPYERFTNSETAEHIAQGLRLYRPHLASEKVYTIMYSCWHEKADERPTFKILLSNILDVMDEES

Each molecule was assayed against BTK (UniProt Q06187) (assay: number of time points (of 5) at which kinase-Nluc abundance scored as decreased, DMSO-normalised (count); higher = more persistent destabilization). Details: K562; 2-18 h.

SMILES | number of time points
Cc1noc(C)c1-c1ccc(-c2cc(C(N)=O)c(NC(N)=O)s2)c(O[C@H]2CCNC2)c1 (10 µM) | 0
Cc1c(CN2CCN(S(C)(=O)=O)CC2)sc2c(N3CCOCC3)nc(-c3cnc(N)nc3)nc12 (2.5 µM) | 1
CC(C)CN(CC(=O)N1CCN(CC(OCc2ccc3ccccc3c2)c2ccc(Cl)cc2Cl)CC1)CC(C)C (centres undefined) [LYN-1604 (dihydrochloride)] (2.5 µM) | 0
CC/C=C\C/C=C\C/C=C\CCCCCCCC(=O)O [α-Linolenic acid] (10 µM) | 0
Nc1ncnc2c1c(-c1ccc(Oc3ccccc3)cc1)nn2C1CCNCC1 [N-piperidine Ibrutinib (hydrochloride)] (10 µM) | 0
CC(C)NC(=O)N1CC[C@H](NC2=Nc3cc(F)ccc3N(CC(F)F)c3ccc(Cl)cc32)C1 (10 µM) | 0
O=C(Nc1cc(Oc2cc(F)c(NC(=O)C3(C(=O)Nc4ccc(F)cc4)CC3)cc2F)ccn1)C1CC1 [Altiratinib] (10 µM) | 0
COCCOc1ccc(-c2cn(-c3ccccc3)c3nc[nH]c(=O)c23)cc1 (10 µM) | 0
Cc1ccc2nc(NC(=O)CSc3nc4c(c(=O)n3-c3ccccc3)SCC4)sc2c1 (2 µM) | 0
C[C@]1(O)CCC[C@@H]1n1c(=O)c(C(F)F)cc2cnc(NC3CCN(S(C)(=O)=O)CC3)nc21 (10 µM) | 0
NC1(Cc2ccc(Cl)cc2)CCN(c2ncnc3[nH]ccc23)CC1 (10 µM) | 0
O=C(O)c1cc(O)ccc1O [2,5-Dihydroxybenzoic acid] (10 µM) | 0
C=C(CCC=C(C)C)[C@H]1CC[C@]2(C)[C@@H]1[C@H](O)C[C@@H]1[C@@]3(C)CC[C@H](O[C@@H]4O[C@H](CO)[C@@H](O)[C@H](O)[C@H]4O[C@@H]4O[C@H](CO)[C@@H](O)[C@H](O)[C@H]4O)C(C)(C)[C@@H]3CC[C@]12C [Ginsenoside Rk1] (10 µM) | 0
CC(C)=CC[C@H](O)C1=CC(=O)c2c(O)ccc(O)c2C1=O [(-)-Alkannin] (2.5 µM) | 0
N#Cc1c(-c2ccccc2)cc(-c2cc(Br)ccc2O)[nH]c1=O (10 µM) | 0
CCn1c(-c2nonc2N)nc2cnc(Oc3cccc(NC(=O)c4ccc(OCCN5CCOCC5)cc4)c3)cc21 (10 µM) | 0
CO[C@H]1C[C@@H]2CC[C@@H](C)[C@@](O)(O2)C(=O)C(=O)N2CCCC[C@H]2C(=O)O[C@H]([C@H](C)C[C@@H]2CC[C@@H](O)[C@H](OC)C2)CC(=O)[C@H](C)/C=C(\C)[C@@H](O)[C@@H](OC)C(=O)[C@H](C)C[C@H](C)/C=C/C=C/C=C/1C [Rapamycin] (10 µM) | 0
CC(C)=CCC[C@](C)(O[C@@H]1O[C@H](CO)[C@@H](O)[C@H](O)[C@H]1O)[C@H]1CC[C@]2(C)[C@@H]1[C@H](O)C[C@@H]1[C@@]3(C)CC[C@H](O)C(C)(C)[C@@H]3[C@@H](O[C@@H]3O[C@H](CO)[C@@H](O)[C@H](O)[C@H]3O[C@@H]3O[C@@H](C)[C@H](O)[C@@H](O)[C@H]3O)C[C@]12C [Ginsenoside Re] (10 µM) | 0
Cn1c(=O)c(F)c(Nc2ccc(I)cc2F)c2c(=O)n(C[C@@H](O)CO)cnc21 (10 µM) | 0

Ordered by heavy-atom count (rising): 3 of the compounds above
SMILES | number of time points
O=C(O)c1cc(O)ccc1O [2,5-Dihydroxybenzoic acid] (10 µM) | 0
N#Cc1c(-c2ccccc2)cc(-c2cc(Br)ccc2O)[nH]c1=O (10 µM) | 0
Cc1ccc2nc(NC(=O)CSc3nc4c(c(=O)n3-c3ccccc3)SCC4)sc2c1 (2 µM) | 0
